Data: article PMC4783006
Results are given in words; binding and its absence hold for the method and conditions named. Tags and fused reporters may be left off the sequences shown. Each block holds one molecule with its values, some of them ahead of it.

Protein sequences, listed by entry. Tags and fused reporters are not part of them.
UniProt Q9FDX8: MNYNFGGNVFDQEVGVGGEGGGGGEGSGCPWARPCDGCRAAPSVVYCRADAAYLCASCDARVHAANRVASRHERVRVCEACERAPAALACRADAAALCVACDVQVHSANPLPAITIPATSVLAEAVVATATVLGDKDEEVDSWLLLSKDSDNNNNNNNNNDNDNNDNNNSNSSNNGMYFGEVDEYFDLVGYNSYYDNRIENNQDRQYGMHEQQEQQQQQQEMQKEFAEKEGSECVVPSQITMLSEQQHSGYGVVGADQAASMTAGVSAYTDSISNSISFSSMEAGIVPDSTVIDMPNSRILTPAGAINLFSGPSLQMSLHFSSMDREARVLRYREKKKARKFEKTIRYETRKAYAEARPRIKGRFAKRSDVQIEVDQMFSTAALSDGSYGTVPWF

Target: T1, OsK4, yeast two-hybrid fusion (rice (Oryza sativa)) (UniProt Q852Q1)
T1 sequence: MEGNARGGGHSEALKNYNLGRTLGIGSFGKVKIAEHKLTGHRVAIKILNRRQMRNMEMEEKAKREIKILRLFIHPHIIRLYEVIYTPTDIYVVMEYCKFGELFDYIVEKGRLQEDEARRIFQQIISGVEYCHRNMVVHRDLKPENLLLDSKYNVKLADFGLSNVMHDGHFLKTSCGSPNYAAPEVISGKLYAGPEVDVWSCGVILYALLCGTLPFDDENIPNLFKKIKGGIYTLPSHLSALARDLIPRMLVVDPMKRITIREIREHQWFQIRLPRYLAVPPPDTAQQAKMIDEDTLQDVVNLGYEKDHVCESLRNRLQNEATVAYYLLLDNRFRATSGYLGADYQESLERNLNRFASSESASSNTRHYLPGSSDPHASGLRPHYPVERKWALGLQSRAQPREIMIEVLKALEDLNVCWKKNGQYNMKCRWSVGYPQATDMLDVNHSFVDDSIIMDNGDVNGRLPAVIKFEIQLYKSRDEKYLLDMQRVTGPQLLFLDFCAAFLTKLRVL
Experiment: two-hybrid; direct test; pGADT7 (AD) and pGBKT7 (BD) fusions in S. cerevisiae AH109; spotted on SD lacking leucine, tryptophan, histidine and adenine

binding: no binding
Molecule: Heading date 1 (HD1), yeast hybrid fusion (from UniProt Q9FDX8 1-395)

binding: no binding
B1: Early heading date 1 (EHD1), yeast hybrid fusion (protein, UniProt Q7Y0W5 1-341)
chain: MDHRELWPYGLRVLVIDDDCSYLSVMEDLLLKCSYKVTTYKNVREAVPFILDNPQIVDLVISDAFFPTEDGLLILQEVTSKFGIPTVIMASSGDTNTVMKYVANGAFDFLLKPVRIEELSNIWQHIFRKQMQDHKNNNMVGNLEKPGHPPSILAMARATPATTRSTATEASLAPLENEVRDDMVNYNGEITDIRDLGKSRLTWTTQLHRQFIAAVNHLGEDKAVPKKILGIMKVKHLTREQVASHLQKYRMQLKKSIPTTSKHGATLSSTALDKTQDHPSRSQYFNQDGCKEIMDYSLPRDDLSSGSECMLEELNDYSSEGFQDFRWDSDKQEYGPCFWNF
